## Primary screen of a compound library

Measurements from “University of Dundee, Small-Polar-MMV Screening Library” (2021), ChEMBL document CHEMBL3988442.

Mtb cholesterol medium: 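Phenotypic screen: M. tuberculosis growth, cholesterol and DPPC medium, 4 days; the read-out is not stated. Tested at 50 µM. The record gives no direction; compounds that gave an IC50 in retests scored well above the rest, so higher reads as more growth inhibition. About 69,000 compounds were tested under these conditions; 0.54% (about 370) showed 50% or more at least once.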
Mtb glucose medium: 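Growth of Mycobacterium tuberculosis over 3 days (7H9 medium with glucose and tyloxapol); the read-out is not stated. Compounds at 50 µM. Higher reads as more growth inhibition (inferred: compounds with an IC50 in retests scored well above the rest). About 69,000 compounds were tested under these conditions; 1.1% (about 760) showed 50% or more at least once.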

Results are given as percent effect. The controls that fix the scale are not given in the record; negative values are as filed. This is an unselected part of the compounds tested. Two or more numbers in one place are separate tests of the same structure; such repeats can differ widely.

compound	Mtb cholesterol medium	Mtb glucose medium
Cc1ccc(NC2CCN(C(=O)C(C)n3cncn3)CC2)nn1 (stereo not given)	-5.458%	-4.465% and 98.34%
CCN(CC)C(=O)Cn1ccc2cc(NC(=O)C3CCCCC3)ccc21	-2.902%	-28.54%
CN1CCOC(C(=O)N(C)c2ccc3c(c2)CCO3)C1 (stereo not given)	0.6576%	-7.555%
CCOc1ncccc1C(=O)N1CCCC1Cn1cc(C)cn1 (stereo not given)	-14.96%	-20.43%
Cc1nc(CN2CCCC(c3cnccn3)C2)cs1 (stereo not given)	3.399% and -15.81%	-49.7%
O=C(NCCN1CCOCC1)c1ccc(-n2ccc3ccccc32)s1	-2.321%	40.99%
Cc1cccc(NC2CCN(C(=O)Nc3cccc4[nH]ccc34)CC2)n1	-1.454%	20.12%
CC(=O)NC1CCCN(C(=O)CCc2cccnc2)C1 (stereo not given)	-4.503%	-1.885%
[H][C@]12CC[C@]([H])(CN(C(C)=O)C1)N(S(=O)(=O)c1ccccc1Cl)C2	-2.09%	-39.05%
CC(=O)N1CCOCC2(CCCNC2)C1 (stereo not given)	4.745%	-5.467%
O=C(NCC(O)COc1ccccc1)C1(c2ccc(F)cc2)CC1 (stereo not given)	-5.583%	-9.091%
Cn1cccc1C(=O)N1CCC2(CC1)CN(c1ccccc1)C(=O)CO2	12.63% and -4.563%	-17.27%
CCOC1CCN(C(=O)NCc2cccc(-n3cccn3)c2)CC1	-7.655%	-1.516%
CN(Cc1cc(C2CC2)[nH]n1)C(=O)c1ccccc1C1CCNC1 (stereo not given)	-9.926% and -7.638%	9.64%
CN(C)CCOCC1CN(C(=O)c2ccnnc2)Cc2ccnn2C1.O=C(O)C(F)(F)F.O=C(O)C(F)(F)F (stereo not given)	-0.4444%	-18.98% and -7.531%
O=C(O)CC(O)(CC(=O)O)C(=O)O.[H][C@@]12CC[C@@](O)(c3ccc(C)cn3)[C@]1([H])CN(Cc1ccccc1F)C2	5.062%	13.47%
COCCn1cnc2ccc(NC(=O)c3ccc(OC)cc3)cc2c1=O	20.5%	38.65%
COC(=O)[C@H]1C[C@@H](O)CCN1S(=O)(=O)c1cc(Cl)ccc1OC	11.16%	7.783% and -2.155%
O=C(CCc1ccc(F)cc1)NS(=O)(=O)c1ccc2c(c1)OCCO2	7.589%	9.076%
CC(NC(=O)Nc1ccccc1CN1CCOCC1)c1nccs1 (stereo not given)	1.25%	-24.26% and 4.862%
Cc1cnn(CC2CCCCN2C(=O)c2ccc3[nH]cnc3c2)c1 (stereo not given)	11.83%	22.68%
CC(=O)NCCNC(=O)c1cnc(-c2ccccc2)nc1	-15.59%	2.55%
COC(=O)N1CCC2(CC1)CC(c1ccccc1)CN(C)C2 (stereo not given)	14.27%	1.891%
Cc1ccoc1-c1nnc(CNC2CCCN(c3cccnn3)C2)o1 (stereo not given)	-11.04%	-37.05%
CC(=O)NCc1nnc2n1CCN(c1ncnc3c1CCC3)CC2	-9.98%	-35.62%
[H][C@@]12CCN(Cc3ccccn3)C[C@@]1([H])O[C@@H](C)C2	-3.214%	0.5483%
O=C(O)C(F)(F)F.[H][C@@]12CN(Cc3ccncc3)CC[C@]1([H])CN(c1cnccn1)C2	-0.7279%	-0.004525%
CC[S+](CC)[c-]1c(=O)[nH]c(=O)n(CCc2ccc(F)cc2)c1=O	-32.16%	0.3133% and 7.403%
CC(C)=CCN1CC2(CCN(Cc3c(F)cccc3F)CC2)CC1=O	-21.51%	27.58%
CCOc1cc(CNC(C)c2sccc2C)ccn1 (stereo not given)	19.15%	31.69% and 5.741%
Cc1nn(C)cc1-c1ccnc(N(C)Cc2ccc(F)cc2)n1	-18%	-0.06455%
COc1cccc(OCc2nnc3n2N=C(C(C)(C)C)CS3)c1	-24.31%	4.175%
Cn1ncc(Cl)c1C(=O)N1CCC(c2nnsc2S(C)(=O)=O)CC1	2.772% and -7.015%	30.66%
[H][C@@]12CS(=O)(=O)C[C@]1([H])N(C(=O)NCc1ccc(OC)cc1)CCN2C	0.08088%	1.881%
O=C(CCC1CCN(Cc2ncc[nH]2)CC1)Nc1ccccc1Cl	-13.42%	-15.43%
C=C(C)COc1cccc(CNC(CC)c2ccnn2C)c1 (stereo not given)	-0.6402% and 6.46%	-2.799%
COc1cc(C)nc(N2CCN(C(=O)CN(C)C(C)C)CC2)n1	-81.74%	-53.4%
CN(C)CCn1ccc2cc(NC(=O)NCc3ncnn3C)ccc21	-12.66%	12.93%
O=C(O)C(F)(F)F.[H][C@@]12CCN(Cc3ccccn3)[C@]1([H])CC[C@H](C(=O)Nc1cnccn1)O2	-13.33%	-17.75%
COCC1CC2(CCN(C(=O)c3ccccc3C)CC2)CN1C(C)C.O=C(O)C(F)(F)F (stereo not given)	-30.05%	-12.64%
Cc1ccc(-c2noc([C@@H]3C[C@H](NC(=O)CC(C)(C)C)CN3C)n2)cc1	-1.402%	10.25% and 21.08%
Cn1c(=O)n(C)c2cc(NS(=O)(=O)Cc3ccccc3)ccc21	3.814%	-3.101%
CN(Cc1cscn1)C1CCCN(c2cccnn2)C1 (stereo not given)	-17.84%	-0.00964%
Cc1cc(C)nc(CN2CCOC(c3ccc(Cl)cc3)C2)n1 (stereo not given)	1.414%	-3.957% and 12.54%
CN(C)C[C@@H]1CN(C(=O)Cc2ccc3ccccc3c2)C[C@@H]1CO	-35.05%	-19.98%
Cc1cccc(-n2ncc3c(=O)n(CCN4CCCCC4)cnc32)c1C	7.229%	-22.03%
NC(=O)NC(=O)CCSCc1coc(-c2cccc(Cl)c2)n1	-9.85%	37.19%
CC(OCC1CC1)C(=O)Nc1ccn(Cc2ccccc2)n1 (stereo not given)	12.28%	10.16% and -9.39%
Cc1ccc(S(=O)(=O)NCC(C)(C)N)c(F)c1.Cl	-3.863%	6.354%
Cc1nn(C)c(Cl)c1C1CCCN1C(=O)c1ccoc1C (stereo not given)	-7.736%	2.582% and -6.009%
O=C(C1CCCO1)N1CCC(n2cc(-c3ccc(F)cc3)nn2)CC1 (stereo not given)	25.01%	-32.49% and 0.3206%
CCC(NC(=O)c1cc(CC(C)C)nn1C)c1ccnn1C (stereo not given)	-4.009%	-6.041% and -1.67%
CC(C)c1noc(CCC(=O)NCC2CC2)n1	-13.81%	14.81%
Cc1cc(C(=O)NCc2ccc(N3CCCC(C(N)=O)C3)cc2)[nH]n1 (stereo not given)	-17.33%	-2.534%
CC(C)(C)n1cc(CNC2CCN(C(=O)c3ccncc3)CC2)cn1	-5.02%	0.6202%
CCN1CC2(CC1=O)CN(C(C)=O)CCN(C(=O)NC)C2 (stereo not given)	-32.73%	-13.9%
O=C(Cc1ccccc1Cl)N1CCN(CC(O)COCCO)CC1 (stereo not given)	-2.074%	17.14%
N#CC1(C(=O)N2CCN(Cc3cscn3)CC2)CCCC1	-10.37%	-6.631%
[H][C@@]12CS(=O)(=O)C[C@]1([H])NCCN2c1ccnc(N(C)Cc2cccnc2)n1	-13.57%	-6.595%
CC(C)c1nnc(CCC(=O)N2CCOC(c3cnccn3)C2)o1 (stereo not given)	10.83%	12.55%
O=C(O)C(F)(F)F.O=C(c1n[nH]c2c1CCN(Cc1nccs1)C2)N1CCCC1	8.817%	16.52%
Cc1nccn1C1CCCN(C(=O)c2cc(O)nc3ccccc23)C1 (stereo not given)	1.585%	12.23%
CC(C)C(C)NC(=O)c1cc(Br)c2c(c1)OCCO2 (stereo not given)	10.8%	12.54%
O=C(NCC1CCOC1)c1cc(-c2cccc(Cl)c2)[nH]n1 (stereo not given)	-3.769%	-25.22% and 4.545%
COc1ccccc1CNC(=O)CN(C)C(C)c1ccon1 (stereo not given)	5.94%	-0.3991%
Cc1cc(CN2CCN(C(C)C)C(CCO)C2)[nH]n1 (stereo not given)	-5.471%	-31.23%
CC1CCc2nc(O)c(C(=O)NCc3cccc(F)c3)cc2C1 (stereo not given)	-17.12%	1.129%
CCc1cc(OC)c(OC)cc1C(=O)Nc1cccnc1	-26.39%	-17.51%
OCCN1CCN(Cc2coc(-c3ccccc3)n2)CC1	-9.754%	-8.079%
CN1CCOC2(CCCN(C(=O)C3CCCCC3)C2)C1.O=C(O)C(F)(F)F (stereo not given)	-28.72%	-7.518%
O=C(CCc1nc2cc(Br)cnc2[nH]1)NCCCn1ccnc1	-6.226%	3.891%
CC(NC(=O)C1CCCC1)c1nncn1C(C)C (stereo not given)	-8.651%	-20.84%
CN(Cc1cccc2cnccc12)C(=O)CCc1n[nH]c2c1CCCC2	-9.279%	-1.469% and 1.758%
CCn1cnnc1C1CCN(C(=O)c2ccc3cc[nH]c3c2)CC1	-14.66%	-5.351% and -4.903%
CN1CCOC[C@H]1c1nc(-c2ccc(F)cc2F)c[nH]1	-22.78%	-2.016% and -21.16%

Some entries from above, unchanged:

CC(=O)NCc1nnc2n1CCN(c1ncnc3c1CCC3)CC2 gave Mtb cholesterol medium: -9.98%; Mtb glucose medium: -35.62%.
[H][C@@]12CS(=O)(=O)C[C@]1([H])N(C(=O)NCc1ccc(OC)cc1)CCN2C gave Mtb cholesterol medium: 0.08088%; Mtb glucose medium: 1.881%.
CC(C)(C)n1cc(CNC2CCN(C(=O)c3ccncc3)CC2)cn1 gave Mtb cholesterol medium: -5.02%; Mtb glucose medium: 0.6202%.
CN(Cc1cccc2cnccc12)C(=O)CCc1n[nH]c2c1CCCC2 gave Mtb cholesterol medium: -9.279%; Mtb glucose medium: -1.469% and 1.758%.